39 compounds from PubChem BioAssay AID463183 (Sanford-Burnham Center for Chemical Genomics, 2010) can be followed below.

The other results are listed elsewhere or left out. The main result of the screen is listed elsewhere. These columns were measured beside it and carry no call. The list favours compounds with an active or inconclusive main result.

The assay in a line: hepatocyte lipid droplet accumulation inhibitors, confirmation, imaging, AML12 mouse hepatocytes, single concentration, high-content (AID 463183).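 Note: cells counted after overnight compound exposure.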 The conditions noted are these: BODIPY lipid droplet imaging, measured here: cell count, cytotoxicity, at 5.2 µM, droplets induced with 100 µM oleic acid.
The compound `CCOc1ccc(CCNC(=O)CN2CCN(Cc3ccccc3C)C2=O)cc1OCC` came in with a cell count of 1470 cells.

For the compound `COC(=O)C1=C(C)N=c2s/c(=C3\C(=O)Nc4ccccc43)c(=O)n2C1c1ccccc1` (centres undefined), the cell count was 1580 cells.

Take `COc1cc2c(cc1OC)CN(CC(=O)Nc1ccc(C)c(C)c1)CC2`: the cell count was 1600 cells. Take `CCS(=O)(=O)N1CCN(c2ccc([N+](=O)[O-])c(NCc3cccnc3)c2)CC1`: the cell count worked out at 1620 cells. `CC(C)(C)C(=O)/C=c1\[nH]c(=O)/c(=C\c2ccc(F)cc2)s1` returned a cell count of 1610 cells. With `Cc1ccccc1Cn1nc(C)c(NC(=O)C2c3ccccc3Oc3ccccc32)c1C` the figure was 1670 cells. `CCC(C)C(NC(=O)c1ccccc1NC(=O)c1ccc(OC)cc1)C(=O)NCc1ccco1` (centres undefined) showed a cell count of 1560 cells. Regarding `CCOc1cc2c(cc1OCC)C(c1ccc(OC)cc1)N(c1ccccc1)C(=O)C2` (centres undefined), the cell count came to 1630 cells. `C/C(=N\Nc1ccc(S(=O)(=O)Nc2ccc(Cl)cc2)cc1[N+](=O)[O-])c1ccc(N2CCOCC2)cc1` gave a cell count of 1560 cells. With `CCOc1ccc(C2=NNC(c3cccs3)=Nc3ccc(OC)cc32)cc1OCC`, the cell count stood at 1580 cells. Take `CCOc1ccc(C(=O)Nc2ccc(NC(=S)NC(=O)CC)cc2)cc1Cl`: the cell count was 1570 cells. For `COc1ccccc1Nc1ccc(NS(=O)(=O)c2ccc(C(C)=O)cc2)cc1`, the cell count worked out at 1590 cells. The compound `CC(C)Oc1ccc(C(=O)OC(C)C(=O)Nc2nc(-c3cccc([N+](=O)[O-])c3)cs2)cc1` (centres undefined) came in with a cell count of 1530 cells. The compound `CCOc1cc2[nH]c(=O)n(CCCC(=O)N(C)Cc3ccccc3)c(=O)c2cc1OCC` came in with a cell count of 1560 cells. The result for `CCOc1ccccc1NC(=O)CCCNC(=O)c1ccc(Cl)cc1` reads 1620 cells. On to `CCCCc1ccc(N=N/C(C(=O)Nc2cc(OC)c(NC(C)=O)cc2OC)=C(/C)O)cc1`, for which the cell count was found to be 1600 cells. Take `CCn1cc(C(=O)N(C)c2ccc(OC)cc2)c2cc(OC)c(OC)cc2c1=O`: the cell count came out at 1620 cells. `Cc1cc(C)cc(NC(=O)CCC(=O)Nc2cc(C)on2)c1` gave a cell count of 1660 cells. `CC(C)(C)NC(=O)CSc1nc2ccc(Nc3nc(N4CCOCC4)nc(N4CCOCC4)n3)cc2s1`: the cell count turned out to be 1620 cells. In turn, `COc1ccc(NC(=O)CN2C(=O)NC(c3ccccc3)(c3ccccc3)C2=O)cc1OC` yielded a cell count of 1640 cells. With `CCN(Cc1ccccc1)C(=O)C1CCN(C(=O)Nc2ccccc2)CC1` the figure was 1550 cells; with `Cc1ccc(C(=O)NCCNC(=O)c2ccc(C)nc2)cc1`, 1630 cells.

Regarding `CCOc1ccc(CCNC(=O)CSc2cc(=O)n(CC)c3ccccc23)cc1OCC`, the cell count stood at 1610 cells. `O=C(Cc1cccc2ccccc12)Nc1nc(-c2cccc([N+](=O)[O-])c2)cs1` showed a cell count of 1650 cells. The result for `Cc1cccc(Nc2ncnc3ccccc23)c1` reads 963 cells; that for `COc1cc(NC(=O)c2ccco2)c(OC)cc1NC(=O)Nc1ccccc1Cl`, 1610 cells. `Cc1ccc2[nH]c(C)c(CC(=O)NCc3ccccc3)c2c1`: the cell count was found to be 1620 cells. As for `Cc1ccc(-n2nnnc2SCC(=O)Nc2ncc(Cc3ccccc3Cl)s2)cc1`, the cell count is 1580 cells. Compound `COc1ccc(C(C(=O)NC(C)(C)C)N(CCC(C)C)C(=O)CCC(=O)Nc2cc(C)on2)cc1` (centres undefined) showed a cell count of 1600 cells.

`CCCCCC(/C=N/Nc1ccc(S(=O)(=O)N2CCOCC2)cc1[N+](=O)[O-])=C\c1ccccc1` returned a cell count of 1700 cells.

`CCOc1ccccc1NC(=O)CCCNC(=O)Cn1cnc2sc(C)c(C)c2c1=O` registered a cell count of 1610 cells. In turn, `Cc1cc(C=O)c(O)cc1O` came in with a cell count of 1590 cells. `O=C1C(NS(=O)(=O)c2cccs2)=C(N2CCN(c3cccc(C(F)(F)F)c3)CC2)C(=O)c2ccccc21` returned a cell count of 1600 cells.

Turning to `CCOc1ccc(CCNC(=O)Nc2cccc(OC)c2)cc1OCC`, the cell count was 1620 cells.

Turning to `O=[N+]([O-])c1sccc1CS(=O)(=O)c1ccccc1`, the cell count was 1680 cells. With `COc1cccc(-c2cn(-c3cccc(C(F)(F)F)c3)c(=S)[nH]2)c1`, the cell count stood at 1630 cells. In turn, `COc1ccc(C(=O)CCC(=O)Nc2ccc(N3CCCCC3)cc2)cc1OC` gave a cell count of 1630 cells. For `Cc1ccc(NC(=O)N2CCC(C(=O)c3ccc(F)cc3)CC2)cc1`, the cell count amounted to 1710 cells. Consider `Cc1nc(NC(=O)C2CC2)sc1C(=O)N(C)C`, for which the cell count was 1650 cells.
